For this assay, the system named is HEK293A TEAD-LUC reporter. The assay can be described thus: TEAD-luciferase reporter activity (YAP activation), robust Z score vs plate; higher = stronger YAP/TEAD activation. To be noted: 24 h.

SMILES strings stand for the structures. Some of the results follow. This data set is noisy: repeats of one test often differ as much as different tests do.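 The human kidney-derived cells carry a stably integrated construct of eight TEAD-binding elements driving luciferase, read by luminescence in a drug-repurposing library screen. A compound counts as a hit when its signal is more than five robust Z scores above the plate mean.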

As to `CC(=O)Oc1ccc(-c2ccc(F)cc2)cc1C(=O)O`, the TEAD-luciferase reporter activity was inactive: -0.245 (compound concentration: 200 nM), inactive: -0.0602 (compound concentration: 2 uM) and inactive: -1.02 (compound concentration: 10 uM).

As for `COc1cc2c(Nc3ccc(Br)cc3F)ncnc2cc1OCC1CCN(C)CC1` [vandetanib], the TEAD-luciferase reporter activity is inactive: -0.844 (compound concentration: 200 nM), inactive: -1.25 (compound concentration: 2 uM) and inactive: 0.0671 (compound concentration: 10 uM).

Consider `COc1cccc(C(=O)N2CCC3(CC2)Cc2ccccc2NC3=O)c1`, for which the TEAD-luciferase reporter activity was inactive: -1.12 (compound concentration: 200 nM) and inactive: 3.13 (compound concentration: 10 uM).

For `O=c1cc(OCCCn2c3ccccc3c3ccccc32)ccn1Cc1ccccc1Cl`, the TEAD-luciferase reporter activity was inactive: -0.262 (compound concentration: 200 nM), inactive: 0.354 (compound concentration: 2 uM) and inactive: -0.573 (compound concentration: 10 uM).

Consider `Cc1nc2c(s1)C(=O)C=C(NCCN(C)C)C2=O`, for which the TEAD-luciferase reporter activity is inactive: 0.405 (compound concentration: 200 nM), inactive: -0.395 (compound concentration: 2 uM) and inactive: -0.749 (compound concentration: 10 uM).

Turning to `Cc1cc(SCc2nn(-c3ccc(C(F)(F)F)cc3)nc2C)ccc1OCC(=O)O` [not Seladelpar], the TEAD-luciferase reporter activity (compound concentration: 200 nM) was inactive: -2.33, the TEAD-luciferase reporter activity (compound concentration: 2 uM) is inactive: 1.37 and the TEAD-luciferase reporter activity (compound concentration: 10 uM) is inactive: -1.

On to `CCCCC/C=C\C/C=C\CCCCCCCC(=O)O`, for which the TEAD-luciferase reporter activity runs as follows: (compound concentration: 200 nM) inactive: -0.436; (compound concentration: 2 uM) inactive: -1.33; (compound concentration: 10 uM) inactive: 0.352.

Turning to `CCCOC`, the TEAD-luciferase reporter activity is, setting by setting: (compound concentration: 200 nM) inactive: 0.563; (compound concentration: 2 uM) inactive: 1.84; (compound concentration: 10 uM) inactive: -0.244.

Take `CC(C)(O)c1ccccc1-c1ccccc1Cl`: the TEAD-luciferase reporter activity by setting is: (compound concentration: 200 nM) inactive: -0.162; (compound concentration: 2 uM) inactive: -0.223; (compound concentration: 10 uM) inactive: -1.55.

Regarding `O=c1[nH]cnc2c1ncn2[C@H]1CC[C@@H](CO)O1` [Didanosine], the TEAD-luciferase reporter activity reads like this: (compound concentration: 200 nM) inactive: -0.248; (compound concentration: 2 uM) inactive: 0.0415; (compound concentration: 10 uM) inactive: -0.223.

In the case of `O=c1[nH]cnc2c1ncn2[C@H]1CC[C@@H](CO)O1`, under “compound concentration: 2 uM”, the TEAD-luciferase reporter activity is inactive: -2.13.

In the case of `CCCN(CCC)C(=O)C(Cc1ccc(OCCCN2CCN(C)CC2)cc1)NC(=O)c1cccc(Cl)c1` (stereo not given), the TEAD-luciferase reporter activity reads like this: (compound concentration: 200 nM) inactive: 0.101; (compound concentration: 2 uM) inactive: -0.667; (compound concentration: 10 uM) inactive: -0.284.

On to `Cc1noc(NS(=O)(=O)c2ccc(N)cc2)c1C` [Sulfafurazole], for which the TEAD-luciferase reporter activity (compound concentration: 2 uM) is inactive: -1.89.

Take `Cc1noc(NS(=O)(=O)c2ccc(N)cc2)c1C` [Sulfisoxazole127-69-5]: the TEAD-luciferase reporter activity is inactive: -1.71 (compound concentration: 200 nM) and inactive: 1.56 (compound concentration: 10 uM).

Regarding `Nc1ncnc2c1ncn2[C@@H]1O[C@@H]2CO[P@@](=O)([S-])O[C@@H]3[C@H](O)[C@@H](CO[P@@](=O)([S-])O[C@H]2[C@H]1O)O[C@H]3n1cnc2c(N)ncnc21`, the TEAD-luciferase reporter activity is inactive: 0.605 (compound concentration: 200 nM), inactive: -0.254 (compound concentration: 2 uM) and inactive: 1.47 (compound concentration: 10 uM).

Take `CC1=C(C=O)C(C)(C)CC=C1` [Safranal]: the TEAD-luciferase reporter activity is, setting by setting: (compound concentration: 200 nM) inactive: -1.5; (compound concentration: 2 uM) inactive: 2.37; (compound concentration: 10 uM) inactive: 0.835.

With `CC[C@]12C=CCN3CC[C@@]4(c5cc([C@@]6(C(=O)OC)C[C@@H]7C[C@@H](C(C)(F)F)CN(Cc8c6[nH]c6ccccc86)C7)c(OC)cc5N(C)[C@H]4[C@@](O)(C(=O)OC)[C@@H]1OC(C)=O)[C@@H]32` [Vinflunine (Tartrate)], the TEAD-luciferase reporter activity runs as follows: (compound concentration: 200 nM) inactive: -1.24; (compound concentration: 2 uM) inactive: 4.25; (compound concentration: 10 uM) inactive: 1.05.

`Cc1cc(F)ccc1-c1nc(NC(CO)CO)nc2c1ccc(=O)n2-c1c(F)cccc1F` [Dilmapimod]: the TEAD-luciferase reporter activity is inactive: 0.0445 (compound concentration: 200 nM), inactive: -1.78 (compound concentration: 2 uM) and inactive: -1.52 (compound concentration: 10 uM).

Turning to `C[C@H]1O[C@H](O[C@H]2[C@H](O)[C@@H](O)[C@@H](O[C@H]3[C@H](O)[C@@H](O)[C@H](O)O[C@@H]3CO)O[C@@H]2CO)[C@H](O)[C@@H](O)[C@@H]1N[C@H]1C=C(CO)[C@@H](O)[C@H](O)[C@H]1O` [Acarbose], the TEAD-luciferase reporter activity is inactive: -1.45 (compound concentration: 200 nM), inactive: -0.343 (compound concentration: 2 uM) and inactive: -0.996 (compound concentration: 10 uM).

Take `O=C(c1c(O)nc2cc(Cl)ccc2c1O)C1CC1`: the TEAD-luciferase reporter activity (compound concentration: 200 nM) was inactive: -2.58, the TEAD-luciferase reporter activity (compound concentration: 2 uM) was inactive: 2.12 and the TEAD-luciferase reporter activity (compound concentration: 10 uM) was inactive: 1.88.

Take `CCN(CC)CCCNc1nccc2c(C)c3[nH]c4ccc(OC)cc4c3c(C)c12`: the TEAD-luciferase reporter activity is, setting by setting: (compound concentration: 200 nM) inactive: 1.13; (compound concentration: 2 uM) inactive: 4.57; (compound concentration: 10 uM) inactive: 1.88.

Consider `CC1(C)Oc2ccc(C#N)cc2[C@@H](N2CCCC2=O)[C@@H]1O` [Cromakalim], for which the TEAD-luciferase reporter activity reads like this: (compound concentration: 200 nM) inactive: -1.29; (compound concentration: 2 uM) inactive: 1.18; (compound concentration: 10 uM) active: 6.36.

Turning to `CC(C)NC(=O)N(C(=O)[C@H]1CC[C@H]2[C@@H]3CC[C@H]4N(C)C(=O)CC[C@]4(C)[C@H]3CC[C@]12C)C(C)C`, the TEAD-luciferase reporter activity was inactive: 0.498 (compound concentration: 200 nM), inactive: -0.034 (compound concentration: 2 uM) and inactive: -0.369 (compound concentration: 10 uM).

For the molecule `C[C@H](NC(=O)Cc1ccccc1)C(=O)Nc1ccc(C2S/C(=N\c3cccc(F)c3)N(Cc3ccccc3)C2=O)cc1` (stereo not given in full), the TEAD-luciferase reporter activity reads like this: (compound concentration: 200 nM) inactive: 2.34; (compound concentration: 2 uM) inactive: -1.79; (compound concentration: 10 uM) inactive: -1.43.

Regarding `CC(=O)NC1(c2ccccc2)CCN(CCC(CN(C)C(=O)c2ccccc2)c2ccc(Cl)c(Cl)c2)CC1` (stereo not given), the TEAD-luciferase reporter activity runs as follows: (compound concentration: 200 nM) inactive: 1.94; (compound concentration: 2 uM) inactive: 0.409; (compound concentration: 10 uM) inactive: -0.0915.

On to `CC1CC2[C@@H]3CC(F)C4=CC(=O)C=C[C@]4(C)C3(F)[C@@H](O)C[C@]2(C)C1(OC(=O)c1ccco1)C(=O)SCF` (stereo not given in full) [fluticasone furoate DPI, GSK], for which the TEAD-luciferase reporter activity is inactive: -1.01 (compound concentration: 200 nM) and inactive: -1.06 (compound concentration: 10 uM).

`CC1CC2[C@@H]3CC(F)C4=CC(=O)C=C[C@]4(C)C3(F)[C@@H](O)C[C@]2(C)C1(OC(=O)c1ccco1)C(=O)SCF` (stereo not given in full) [fluticasone furoate DPI]: the TEAD-luciferase reporter activity (compound concentration: 2 uM) is inactive: 0.107.

Turning to `CCN1CCN(C(=O)N[C@@H](C(=O)N[C@]2(OC)C(=O)N3C(C(=O)O)=C(CSc4nnnn4C)CS[C@@H]32)[C@H](C)O)C(=O)C1=O` [cefbuperazone], the TEAD-luciferase reporter activity by setting is: (compound concentration: 200 nM) inactive: -0.96; (compound concentration: 2 uM) inactive: -0.78; (compound concentration: 10 uM) inactive: -0.293.

On to `COc1c(C(O)c2ncc([N+](=O)[O-])n2C)cccc1C(C)(C)C` (stereo not given), for which the TEAD-luciferase reporter activity is inactive: -0.805 (compound concentration: 200 nM), inactive: -1.65 (compound concentration: 2 uM) and inactive: -0.567 (compound concentration: 10 uM).

With `CC(C)=CCC/C(C)=C/CC/C(C)=C/CC/C(C)=C/CCC(=O)N1CCN(C)CC1`, the TEAD-luciferase reporter activity is inactive: -1.36 (compound concentration: 200 nM), inactive: -0.231 (compound concentration: 2 uM) and inactive: 1.8 (compound concentration: 10 uM).

In the case of `Cc1ccnc(NC(=O)C(C)c2cccc(C(=O)c3ccccc3)c2)c1` (stereo not given) [piketoprofen], the TEAD-luciferase reporter activity (compound concentration: 200 nM) was inactive: -2.62, the TEAD-luciferase reporter activity (compound concentration: 2 uM) was inactive: 0.896 and the TEAD-luciferase reporter activity (compound concentration: 10 uM) was inactive: 1.23.

On to `O=C(Nc1cnc(-c2ccncc2F)c(-c2cccnc2)n1)C1CC1`, for which the TEAD-luciferase reporter activity was inactive: -0.0601 (compound concentration: 200 nM), inactive: -0.476 (compound concentration: 2 uM) and inactive: -0.702 (compound concentration: 10 uM).

On to `COc1ccc(Cl)cc1-c1cc(=O)[nH]c(=S)n1CC(N)=O`, for which the TEAD-luciferase reporter activity runs as follows: (compound concentration: 200 nM) inactive: 1.12; (compound concentration: 2 uM) inactive: -0.723; (compound concentration: 10 uM) inactive: 0.622.

The values above are taken from the supplement of paper PMC10735217.
